No constants are given. Whether binding was seen depends on the method and setting. In cells and extracts the contact can be indirect. Some results given as binding are weak or reduced against the parent protein; the word gives no strength. Sequences can lack the tags named with a protein. Each block holds one molecule with its values, some of them ahead of it.
Tests used:
[1] = biological target: T1, HA-tagged iR2-1-374, nuclear N-terminal fragment of mouse iRhom2 (tetracycline inducible) (mouse) (UniProt Q80WQ6); assay: co-IP; HEK293T stably expressing tetracycline-inducible HA-tagged iR2-1-374; IP: HA; immunoblot for endogenous nuclear proteins
T1 sequence: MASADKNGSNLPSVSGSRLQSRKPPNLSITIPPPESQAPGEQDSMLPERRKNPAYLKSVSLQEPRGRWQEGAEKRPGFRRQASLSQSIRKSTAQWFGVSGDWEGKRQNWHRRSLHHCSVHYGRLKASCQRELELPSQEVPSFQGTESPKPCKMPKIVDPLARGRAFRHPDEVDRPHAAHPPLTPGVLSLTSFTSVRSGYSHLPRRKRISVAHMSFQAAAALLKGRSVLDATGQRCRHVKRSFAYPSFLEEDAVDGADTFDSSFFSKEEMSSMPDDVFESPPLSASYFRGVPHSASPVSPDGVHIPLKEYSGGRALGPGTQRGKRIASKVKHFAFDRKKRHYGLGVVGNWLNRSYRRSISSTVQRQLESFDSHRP

[2] = biological target: T2, wild-type mouse iRhom2 with C-terminal HA tag (pEGFP-N1-iR2-HA-WT) (mouse) (UniProt Q80WQ6); assay: co-IP; HEK293T transfected with HA-tagged iRhom2 constructs and SEC11A, 36-48 h; Triton X-100 lysate; IP: HA with anti-HA magnetic beads, 4°C overnight; washes with 500 mM NaCl; immunoblot
T2 sequence: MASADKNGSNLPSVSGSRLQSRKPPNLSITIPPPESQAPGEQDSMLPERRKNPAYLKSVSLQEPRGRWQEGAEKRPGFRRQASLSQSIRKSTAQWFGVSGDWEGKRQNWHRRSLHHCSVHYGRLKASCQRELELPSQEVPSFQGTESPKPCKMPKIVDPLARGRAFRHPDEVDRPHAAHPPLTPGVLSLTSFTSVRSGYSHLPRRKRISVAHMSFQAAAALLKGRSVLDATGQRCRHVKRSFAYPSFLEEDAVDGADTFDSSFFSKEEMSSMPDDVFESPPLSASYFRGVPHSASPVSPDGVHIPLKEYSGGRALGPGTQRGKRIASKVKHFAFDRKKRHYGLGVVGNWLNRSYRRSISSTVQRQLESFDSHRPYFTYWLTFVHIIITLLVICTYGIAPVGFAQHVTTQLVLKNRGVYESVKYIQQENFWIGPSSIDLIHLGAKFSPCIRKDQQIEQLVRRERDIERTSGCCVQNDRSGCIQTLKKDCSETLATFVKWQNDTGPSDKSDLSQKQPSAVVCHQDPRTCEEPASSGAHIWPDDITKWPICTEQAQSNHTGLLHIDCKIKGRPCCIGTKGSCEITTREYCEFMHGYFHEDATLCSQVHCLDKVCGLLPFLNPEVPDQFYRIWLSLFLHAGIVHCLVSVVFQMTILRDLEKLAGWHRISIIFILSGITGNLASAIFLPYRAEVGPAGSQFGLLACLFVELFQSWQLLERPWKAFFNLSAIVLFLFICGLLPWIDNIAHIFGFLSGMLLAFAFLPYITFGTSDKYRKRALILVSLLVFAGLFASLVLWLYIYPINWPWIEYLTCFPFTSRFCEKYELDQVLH

binding [1]: binds
Molecule: C-terminal binding protein 2 (CtBP2) (from UniProt P56545 1-445)

binding [2]: binds
B1: SEC11A, catalytic subunit of the signal peptidase complex (SEC11A-Myc-FLAG) (enzyme, UniProt P67812 1-179)
chain: MLSLDFLDDVRRMNKRQLYYQVLNFGMIVSSALMIWKGLMVITGSESPIVVVLSGSMEPAFHRGDLLFLTNRVEDPIRVGEIVVFRIEGREIPIVHRVLKIHEKQNGHIKFLTKGDNNAVDDRGLYKQGQHWLEKKDVVGRARGFVPYIGIVTILMNDYPKFKYAVLFLLGLFVLVHRE
